The target in one experiment is RET (UniProt P07949). As to the kind of experiment: kinase-Nluc reporter destabilization hit call (1 = scored as downregulated) (binary); higher = compound decreases kinase abundance. As to conditions: 10 µM; K562; 2-18 h.
Experiment [1] concerns the target RET_M918T (clone: RET_mut) (UniProt P07949). The experiment is described as above. As to conditions: 10 µM; K562; 2-18 h.
The next experiment deals with RIOK1 (UniProt Q9BRS2). The experiment is described as above. As to conditions: K562, 2-18 h.
The next experiment deals with RIPK1 (UniProt Q13546). Described as above. As to conditions: K562, 2-18 h.
A further experiment has as its target RIPK2 (UniProt O43353). Described as above. As to conditions: K562, 2-18 h.
A further experiment concerns the target ROR2 (UniProt Q01974). Described as above. As to conditions: K562, 2-18 h.
The target in another experiment is RPS6KA1 (UniProt Q15418). Described as above. As to conditions: K562, 2-18 h.
The target in another experiment is SPHK1 (UniProt Q9NYA1). Described as above. As to conditions: K562, 2-18 h.
The target in a further experiment is SRC (UniProt P12931). Described as above. As to conditions: K562, 2-18 h.
The next experiment addresses STK24 (UniProt Q9Y6E0). Described as above. As to conditions: K562, 2-18 h.
In a further experiment the target is STK38 (UniProt Q15208). The experiment is described as above. As to conditions: K562, 2-18 h.
For the next experiment, the target named is SYK (UniProt P43405). The experiment is described as above. As to conditions: K562, 2-18 h.
The next experiment concerns the target TEC (UniProt P42680). The description is as above. As to conditions: K562, 2-18 h.
Another experiment has as its target ULK3 (UniProt Q6PHR2). Described as above. As to conditions: K562, 2-18 h.
Another experiment deals with YES1 (UniProt P07947). The experiment is described as above. As to conditions: K562, 2-18 h.
For a further experiment, the target named is ZAK (UniProt Q9NYL2). The experiment is described as above. As to conditions: 10 µM; K562; 2-18 h.
The target of a further experiment is ZAP70 (UniProt P43403). Described as above. As to conditions: K562, 2-18 h.
A further experiment concerns the target CDK4 (UniProt P11802). In words: number of time points (of 4; 2 h point missing) at which kinase-Nluc abundance scored as decreased, DMSO-normalised (count); higher = more persistent destabilization. As to conditions: K562, 2-18 h.
Another experiment has as its target CDK7 (UniProt P50613). Described as above. As to conditions: K562, 2-18 h.
A further experiment addresses TYK2 (UniProt P29597). In words: kinase-Nluc reporter destabilization hit call (1 = scored as downregulated) (binary); higher = compound decreases kinase abundance. As to conditions: K562, 2-18 h.

Sequences of proteins named here, by UniProt entry; tags and fusion partners are left off. A change or cut given only in a name is not applied to a line headed by its entry.
UniProt P07949, whole entry, looked up: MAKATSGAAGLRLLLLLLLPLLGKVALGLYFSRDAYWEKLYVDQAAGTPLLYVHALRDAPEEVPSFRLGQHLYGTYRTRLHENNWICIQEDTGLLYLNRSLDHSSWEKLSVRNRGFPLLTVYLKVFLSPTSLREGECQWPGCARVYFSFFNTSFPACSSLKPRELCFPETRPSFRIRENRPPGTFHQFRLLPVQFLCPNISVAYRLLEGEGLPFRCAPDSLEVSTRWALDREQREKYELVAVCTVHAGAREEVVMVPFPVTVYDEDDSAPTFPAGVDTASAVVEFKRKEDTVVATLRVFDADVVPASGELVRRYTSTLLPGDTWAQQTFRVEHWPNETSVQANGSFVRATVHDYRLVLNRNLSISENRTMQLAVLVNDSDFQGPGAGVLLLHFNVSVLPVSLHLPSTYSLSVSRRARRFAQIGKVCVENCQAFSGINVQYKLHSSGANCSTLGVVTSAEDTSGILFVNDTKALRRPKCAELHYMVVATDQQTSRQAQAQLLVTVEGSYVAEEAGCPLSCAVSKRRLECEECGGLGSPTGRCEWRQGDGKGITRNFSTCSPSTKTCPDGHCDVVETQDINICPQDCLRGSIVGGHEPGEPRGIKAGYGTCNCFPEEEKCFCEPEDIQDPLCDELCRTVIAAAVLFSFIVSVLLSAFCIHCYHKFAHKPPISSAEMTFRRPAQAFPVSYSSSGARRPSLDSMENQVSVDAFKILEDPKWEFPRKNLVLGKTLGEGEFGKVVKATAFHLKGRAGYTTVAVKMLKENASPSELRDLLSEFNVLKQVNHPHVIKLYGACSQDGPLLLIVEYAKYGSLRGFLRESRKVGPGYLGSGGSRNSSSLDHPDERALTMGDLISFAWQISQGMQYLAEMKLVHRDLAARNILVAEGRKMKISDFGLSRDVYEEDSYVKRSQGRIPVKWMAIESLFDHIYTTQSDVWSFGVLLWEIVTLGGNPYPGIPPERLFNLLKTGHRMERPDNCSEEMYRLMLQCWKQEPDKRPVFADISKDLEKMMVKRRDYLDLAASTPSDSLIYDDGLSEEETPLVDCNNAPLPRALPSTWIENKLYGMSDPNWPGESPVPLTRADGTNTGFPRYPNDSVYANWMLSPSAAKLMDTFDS
UniProt P07949, whole entry M918T, looked up: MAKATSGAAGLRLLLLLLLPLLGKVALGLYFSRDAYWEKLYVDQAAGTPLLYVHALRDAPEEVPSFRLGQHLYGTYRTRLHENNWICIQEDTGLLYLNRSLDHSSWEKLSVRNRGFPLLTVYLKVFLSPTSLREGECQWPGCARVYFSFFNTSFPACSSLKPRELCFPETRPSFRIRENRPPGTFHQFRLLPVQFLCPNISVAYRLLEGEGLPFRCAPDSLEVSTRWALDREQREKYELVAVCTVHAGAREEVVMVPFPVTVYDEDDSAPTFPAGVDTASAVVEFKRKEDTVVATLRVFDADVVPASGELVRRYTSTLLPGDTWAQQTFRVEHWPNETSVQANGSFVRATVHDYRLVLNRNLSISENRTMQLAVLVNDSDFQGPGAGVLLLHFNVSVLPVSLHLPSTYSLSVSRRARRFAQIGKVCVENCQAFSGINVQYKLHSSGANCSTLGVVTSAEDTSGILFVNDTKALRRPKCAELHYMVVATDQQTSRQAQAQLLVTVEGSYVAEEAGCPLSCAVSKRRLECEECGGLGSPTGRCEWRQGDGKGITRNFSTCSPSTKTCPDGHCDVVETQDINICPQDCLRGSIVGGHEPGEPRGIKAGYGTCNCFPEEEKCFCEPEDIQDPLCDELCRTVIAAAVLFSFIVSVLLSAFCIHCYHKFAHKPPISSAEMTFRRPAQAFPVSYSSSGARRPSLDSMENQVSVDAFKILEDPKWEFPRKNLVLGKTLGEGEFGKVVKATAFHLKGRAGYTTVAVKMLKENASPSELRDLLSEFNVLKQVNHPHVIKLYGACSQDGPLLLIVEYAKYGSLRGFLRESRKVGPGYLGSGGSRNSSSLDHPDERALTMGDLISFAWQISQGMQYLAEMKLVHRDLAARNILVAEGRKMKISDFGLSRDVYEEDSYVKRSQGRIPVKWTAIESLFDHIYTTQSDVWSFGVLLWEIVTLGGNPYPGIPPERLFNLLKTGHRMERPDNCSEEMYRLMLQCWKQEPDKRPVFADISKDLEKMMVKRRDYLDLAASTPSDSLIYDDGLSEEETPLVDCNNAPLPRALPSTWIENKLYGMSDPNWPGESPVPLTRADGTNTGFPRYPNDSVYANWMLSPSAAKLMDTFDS
UniProt Q9BRS2: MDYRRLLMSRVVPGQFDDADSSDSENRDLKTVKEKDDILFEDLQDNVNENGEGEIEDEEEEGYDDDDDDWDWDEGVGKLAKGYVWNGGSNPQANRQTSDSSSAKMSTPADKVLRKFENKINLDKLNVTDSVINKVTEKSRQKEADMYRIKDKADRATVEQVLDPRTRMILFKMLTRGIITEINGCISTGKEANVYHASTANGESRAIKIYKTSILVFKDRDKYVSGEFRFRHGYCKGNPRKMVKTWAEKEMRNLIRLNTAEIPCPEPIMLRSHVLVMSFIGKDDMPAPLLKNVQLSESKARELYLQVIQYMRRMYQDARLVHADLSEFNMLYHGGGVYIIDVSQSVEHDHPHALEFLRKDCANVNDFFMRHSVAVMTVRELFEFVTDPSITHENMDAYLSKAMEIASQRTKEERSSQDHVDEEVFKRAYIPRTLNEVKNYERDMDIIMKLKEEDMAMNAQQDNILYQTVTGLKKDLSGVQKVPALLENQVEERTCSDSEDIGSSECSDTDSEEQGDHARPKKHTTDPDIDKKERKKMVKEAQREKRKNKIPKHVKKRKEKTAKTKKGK
UniProt Q13546: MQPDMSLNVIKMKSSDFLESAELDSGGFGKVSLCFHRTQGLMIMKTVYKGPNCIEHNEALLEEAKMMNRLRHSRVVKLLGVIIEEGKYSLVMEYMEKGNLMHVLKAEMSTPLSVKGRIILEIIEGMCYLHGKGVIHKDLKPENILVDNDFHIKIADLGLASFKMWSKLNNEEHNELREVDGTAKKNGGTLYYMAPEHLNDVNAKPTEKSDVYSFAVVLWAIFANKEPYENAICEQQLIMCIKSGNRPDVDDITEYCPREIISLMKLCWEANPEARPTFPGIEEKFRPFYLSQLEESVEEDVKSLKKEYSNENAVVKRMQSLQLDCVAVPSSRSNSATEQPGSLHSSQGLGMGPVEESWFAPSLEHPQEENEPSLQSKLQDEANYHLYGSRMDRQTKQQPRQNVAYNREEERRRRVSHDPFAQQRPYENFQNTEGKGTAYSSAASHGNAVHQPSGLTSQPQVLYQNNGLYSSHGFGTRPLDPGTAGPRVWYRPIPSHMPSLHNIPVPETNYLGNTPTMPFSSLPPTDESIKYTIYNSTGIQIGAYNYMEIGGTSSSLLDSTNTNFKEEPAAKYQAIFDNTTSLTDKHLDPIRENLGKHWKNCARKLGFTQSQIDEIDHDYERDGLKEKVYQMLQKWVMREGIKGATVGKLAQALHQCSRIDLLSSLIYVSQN
UniProt Q01974, whole entry: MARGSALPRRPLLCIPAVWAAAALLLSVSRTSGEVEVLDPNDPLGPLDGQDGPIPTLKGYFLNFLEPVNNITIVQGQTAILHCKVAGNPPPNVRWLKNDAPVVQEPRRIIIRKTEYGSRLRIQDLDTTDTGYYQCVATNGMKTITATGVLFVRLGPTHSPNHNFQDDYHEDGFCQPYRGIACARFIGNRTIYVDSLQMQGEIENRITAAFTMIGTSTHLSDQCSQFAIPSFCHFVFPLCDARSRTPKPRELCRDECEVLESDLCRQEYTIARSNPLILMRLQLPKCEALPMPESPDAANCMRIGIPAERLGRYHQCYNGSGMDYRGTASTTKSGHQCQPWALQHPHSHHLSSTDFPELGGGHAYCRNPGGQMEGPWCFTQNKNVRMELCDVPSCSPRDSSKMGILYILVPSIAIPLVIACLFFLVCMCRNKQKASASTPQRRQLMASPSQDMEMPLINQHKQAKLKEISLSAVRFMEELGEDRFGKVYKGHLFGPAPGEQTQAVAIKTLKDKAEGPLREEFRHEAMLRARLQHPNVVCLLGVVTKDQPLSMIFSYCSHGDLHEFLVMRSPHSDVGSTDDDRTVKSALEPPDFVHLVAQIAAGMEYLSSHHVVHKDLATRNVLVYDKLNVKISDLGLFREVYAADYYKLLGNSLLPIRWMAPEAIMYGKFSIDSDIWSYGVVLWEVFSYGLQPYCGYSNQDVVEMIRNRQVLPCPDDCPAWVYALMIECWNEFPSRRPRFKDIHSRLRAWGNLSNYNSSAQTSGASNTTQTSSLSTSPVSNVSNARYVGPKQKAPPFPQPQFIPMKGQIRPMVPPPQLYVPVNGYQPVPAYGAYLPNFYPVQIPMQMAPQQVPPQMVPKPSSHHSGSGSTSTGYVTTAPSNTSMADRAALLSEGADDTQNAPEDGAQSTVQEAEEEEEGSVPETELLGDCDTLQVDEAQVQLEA
UniProt Q15418, whole entry: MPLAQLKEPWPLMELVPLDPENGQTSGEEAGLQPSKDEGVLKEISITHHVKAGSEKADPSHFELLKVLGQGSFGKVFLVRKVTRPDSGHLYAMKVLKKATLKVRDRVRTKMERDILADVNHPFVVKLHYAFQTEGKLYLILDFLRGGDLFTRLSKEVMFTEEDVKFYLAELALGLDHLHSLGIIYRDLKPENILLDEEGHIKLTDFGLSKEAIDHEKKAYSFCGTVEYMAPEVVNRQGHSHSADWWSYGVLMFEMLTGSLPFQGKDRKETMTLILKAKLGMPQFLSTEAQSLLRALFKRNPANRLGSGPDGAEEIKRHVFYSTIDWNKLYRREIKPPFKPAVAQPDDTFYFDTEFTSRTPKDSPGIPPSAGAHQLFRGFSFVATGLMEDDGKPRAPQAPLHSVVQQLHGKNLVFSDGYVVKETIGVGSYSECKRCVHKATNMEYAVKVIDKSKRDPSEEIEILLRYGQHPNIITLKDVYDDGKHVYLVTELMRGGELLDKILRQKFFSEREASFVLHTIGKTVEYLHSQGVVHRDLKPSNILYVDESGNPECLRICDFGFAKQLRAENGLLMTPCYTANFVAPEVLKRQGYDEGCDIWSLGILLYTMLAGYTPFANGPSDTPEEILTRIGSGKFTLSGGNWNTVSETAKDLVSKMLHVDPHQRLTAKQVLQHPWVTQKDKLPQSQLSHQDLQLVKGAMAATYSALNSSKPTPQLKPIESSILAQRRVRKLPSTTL
UniProt Q6PHR2: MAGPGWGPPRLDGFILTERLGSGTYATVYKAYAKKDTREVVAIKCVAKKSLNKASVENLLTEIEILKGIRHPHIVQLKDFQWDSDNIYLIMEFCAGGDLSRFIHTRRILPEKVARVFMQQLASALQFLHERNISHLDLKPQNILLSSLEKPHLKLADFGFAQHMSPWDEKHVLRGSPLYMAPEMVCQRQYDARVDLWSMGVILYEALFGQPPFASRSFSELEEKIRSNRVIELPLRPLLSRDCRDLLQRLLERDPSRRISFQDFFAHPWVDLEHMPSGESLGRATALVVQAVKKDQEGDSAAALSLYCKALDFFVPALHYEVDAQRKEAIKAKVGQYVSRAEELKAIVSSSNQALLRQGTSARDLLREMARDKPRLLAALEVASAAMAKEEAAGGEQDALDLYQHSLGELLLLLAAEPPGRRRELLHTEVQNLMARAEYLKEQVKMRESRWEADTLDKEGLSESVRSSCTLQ
UniProt P07947, whole entry, looked up: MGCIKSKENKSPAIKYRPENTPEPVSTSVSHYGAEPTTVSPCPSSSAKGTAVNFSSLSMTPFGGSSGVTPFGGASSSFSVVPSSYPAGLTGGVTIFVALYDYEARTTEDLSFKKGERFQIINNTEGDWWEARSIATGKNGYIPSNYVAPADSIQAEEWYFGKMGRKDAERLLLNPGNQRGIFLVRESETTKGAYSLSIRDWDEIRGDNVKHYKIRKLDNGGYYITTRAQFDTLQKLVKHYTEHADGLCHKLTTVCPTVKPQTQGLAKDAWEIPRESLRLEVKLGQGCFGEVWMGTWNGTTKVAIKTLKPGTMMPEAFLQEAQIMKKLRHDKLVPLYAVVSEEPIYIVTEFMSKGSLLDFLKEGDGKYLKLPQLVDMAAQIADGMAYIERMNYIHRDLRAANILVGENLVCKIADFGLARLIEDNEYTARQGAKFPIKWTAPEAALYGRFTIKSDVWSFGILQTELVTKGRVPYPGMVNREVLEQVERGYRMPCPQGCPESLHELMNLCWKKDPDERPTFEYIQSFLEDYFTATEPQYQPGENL
UniProt P11802: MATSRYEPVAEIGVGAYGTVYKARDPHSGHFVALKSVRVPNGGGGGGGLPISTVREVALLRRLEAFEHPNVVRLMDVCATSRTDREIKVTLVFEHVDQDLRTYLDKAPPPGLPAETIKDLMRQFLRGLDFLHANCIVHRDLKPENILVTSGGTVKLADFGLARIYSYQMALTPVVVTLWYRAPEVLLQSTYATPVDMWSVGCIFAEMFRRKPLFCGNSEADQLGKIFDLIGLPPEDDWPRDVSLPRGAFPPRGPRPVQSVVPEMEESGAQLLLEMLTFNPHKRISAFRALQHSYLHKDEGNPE

This is one part of the list. The calls rarely recur for the same compound in another form.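 Kinases, fused to nanoluciferase, were expressed in K562 cells; luminescence was measured every 4 h from 2 to 18 h as percent of control (DMSO = 100%, positive control = 0%). A time point is decreased if signal falls significantly (2 sigma). Hits were called by the authors by a rule that is not shown; the count of time points alone does not decide it.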

Consider `O=C1Cc2c([nH]c3ccc(Br)cc23)-c2ccccc2N1` [Kenpaullone], for which the “kinase-Nluc reporter destabilization hit call” value (with RET; in experiment [1]; with RIOK1 (10 µM); in the experiment with RIPK1 (10 µM); in the experiment with RIPK2 (10 µM); with ROR2 (10 µM)) was inactive: 0 in each case. Besides, the “kinase-Nluc reporter destabilization hit call” value is inactive: 0 with RPS6KA1 (10 µM); active: 1 with SPHK1 (10 µM); inactive: 0 with SRC (10 µM); inactive: 0 with STK24 (10 µM); inactive: 0 with STK38 (10 µM); inactive: 0 with SYK (10 µM). Further, the “kinase-Nluc reporter destabilization hit call” value with TEC (10 µM), in the experiment with ULK3 (10 µM), with YES1 (10 µM), in the experiment with ZAK and with ZAP70 (10 µM) was inactive: 0 in each case. Also, the “number of time points” value in the experiment with CDK4 (10 µM) and in the experiment with CDK7 (10 µM) was 0 throughout.

Turning to `Nc1ncnc2n[nH]c(-c3ccc(Oc4ccccc4)cc3)c12` [Ibrutinib deacryloylpiperidine], the “kinase-Nluc reporter destabilization hit call” value (with RET; in [1]; with RIOK1 (10 µM); in the experiment with RIPK1 (10 µM); with RIPK2 (10 µM); in the experiment with ROR2 (10 µM)) was inactive: 0 each time. The “kinase-Nluc reporter destabilization hit call” value with RPS6KA1 (10 µM), in the experiment with SPHK1 (10 µM), with STK24 (10 µM), with STK38 (10 µM), in the experiment with SYK (10 µM) and with TEC (10 µM) was inactive: 0 throughout. For the same compound, the “kinase-Nluc reporter destabilization hit call” value with TYK2 (10 µM), with ULK3 (10 µM), with YES1 (10 µM), with ZAK and in the experiment with ZAP70 (10 µM) was inactive: 0 in each case. Further, the “number of time points” value with CDK4 (10 µM) and with CDK7 (10 µM) was 0 throughout.

In the case of `C[C@@]1(C(=O)Nc2ccc(F)nc2)CCCN1c1nc(Nc2cc(C3CC3)n[nH]2)c2cccn2n1`, the “kinase-Nluc reporter destabilization hit call” value with RIOK1 (10 µM), in the experiment with RIPK1 (10 µM), in the experiment with RIPK2 (10 µM), with ROR2 (10 µM), with RPS6KA1 (10 µM) and in the experiment with SPHK1 (10 µM) was inactive: 0 in each case. Further, the “kinase-Nluc reporter destabilization hit call” value in the experiment with STK24 (10 µM), with STK38 (10 µM), with SYK (10 µM), in the experiment with TEC (10 µM), with TYK2 (10 µM) and with ULK3 (10 µM) was inactive: 0 throughout. The “kinase-Nluc reporter destabilization hit call” value in the experiment with YES1 (10 µM), with ZAK and in the experiment with ZAP70 (10 µM) was inactive: 0 throughout. Also, the “number of time points” value in the experiment with CDK4 (10 µM) and with CDK7 (10 µM) was 0 each time.

As for `COc1cc2/c(=N/c3ccc(Br)cc3F)nc[nH]c2cc1OCC1CCN(C)CC1` [Vandetanib], the “kinase-Nluc reporter destabilization hit call” value with RIOK1 (2.5 µM), with RIPK1 (2.5 µM), with RIPK2 (2.5 µM), in the experiment with ROR2 (2.5 µM), in the experiment with RPS6KA1 (2.5 µM) and with SPHK1 (2.5 µM) was inactive: 0 in each case. In addition, the “kinase-Nluc reporter destabilization hit call” value in the experiment with SRC (2.5 µM), with STK24 (2.5 µM), with STK38 (2.5 µM), with SYK (2.5 µM), with TEC (2.5 µM) and with TYK2 (2.5 µM) was inactive: 0 in each case. The “kinase-Nluc reporter destabilization hit call” value in the experiment with ULK3 (2.5 µM), with YES1 (2.5 µM) and with ZAP70 (2.5 µM) was inactive: 0 each time. In addition, the “number of time points” value with CDK4 (2.5 µM) and with CDK7 (2.5 µM) was 0 in each case.

For the compound `C=CC(=O)N1CCC([C@@H]2CCNc3c(C(N)=O)c(-c4ccc(Oc5ccccc5)cc4)nn32)CC1` [Zanubrutinib], the “kinase-Nluc reporter destabilization hit call” value (in the experiment with RET; in experiment [1]; with RIOK1 (10 µM); with RIPK1 (10 µM); with RIPK2 (10 µM); with ROR2 (10 µM)) was inactive: 0 each time. Also, the “kinase-Nluc reporter destabilization hit call” value with RPS6KA1 (10 µM), with SPHK1 (10 µM), in the experiment with SRC (10 µM), in the experiment with STK24 (10 µM), with STK38 (10 µM) and with SYK (10 µM) was inactive: 0 in each case. Further, the “kinase-Nluc reporter destabilization hit call” value in the experiment with TEC (10 µM), with TYK2 (10 µM), with ULK3 (10 µM), in the experiment with YES1 (10 µM), with ZAK and in the experiment with ZAP70 (10 µM) was inactive: 0 each time. Besides, the “number of time points” value in the experiment with CDK4 (10 µM) and with CDK7 (10 µM) was 0 in each case.

(Values after the supplement of paper PMC12823440, “Inhibitors supercharge kinase turnover through native proteolytic circuits” (Nature, 2025).)
